Drawing on patent publication US20190216949A1, this text covers binding for one molecule.

Protein sequences, listed by entry. Tags and fused reporters are not part of them. Residues count along the entry.
UniProt Q05320, residues 33-650: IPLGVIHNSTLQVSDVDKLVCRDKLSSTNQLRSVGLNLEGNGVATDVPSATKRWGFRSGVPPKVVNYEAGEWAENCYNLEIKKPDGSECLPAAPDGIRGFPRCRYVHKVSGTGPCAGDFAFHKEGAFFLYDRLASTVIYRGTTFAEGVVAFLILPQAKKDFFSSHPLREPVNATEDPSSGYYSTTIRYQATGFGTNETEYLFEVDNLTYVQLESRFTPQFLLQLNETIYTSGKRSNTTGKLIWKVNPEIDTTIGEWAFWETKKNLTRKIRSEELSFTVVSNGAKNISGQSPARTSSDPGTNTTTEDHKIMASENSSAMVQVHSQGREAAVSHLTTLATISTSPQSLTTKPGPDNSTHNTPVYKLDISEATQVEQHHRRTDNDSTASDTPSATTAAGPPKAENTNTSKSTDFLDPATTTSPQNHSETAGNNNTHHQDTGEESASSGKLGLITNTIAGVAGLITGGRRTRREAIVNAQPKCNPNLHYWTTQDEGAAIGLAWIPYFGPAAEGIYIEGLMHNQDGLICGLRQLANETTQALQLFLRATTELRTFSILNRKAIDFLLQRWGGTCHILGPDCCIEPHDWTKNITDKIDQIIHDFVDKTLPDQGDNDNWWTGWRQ

These are yes or no findings as the source states them, for the method shown. Some entries that bind do so weakly or less than the wild type.

In assay [1] the target is Ebola virus glycoprotein (EBOV GP) (Ebola virus (EBOV)) (UniProt Q05320). Briefly: EBOV GP ELISA of serum at 1:100 dilution after IM AAV-2G4. (In general: ELISA stands for enzyme-linked immunosorbent assay.)
Assay [2] has the same target. In words: EBOV GP ELISA of serum.

B1: monoclonal antibody 2G4 (murine IgG2a, expressed in mice from AAV6.2FF-2G4) (antibody, V domains shown)
VH: GGGLMQPGGSMKLSCVASGFTFSNYWMNWVRQSPEKGLEWVAEIRLKSNNYATHYAESVKGRFTISRDDSKRSVYLQMNTLRAEDTGIYYCTRGNGNYRAMDYWGQGTSVTVSS
VL: ASLSVSVGETVSITCRASENIYSSLAWYQQKQGKSPQLLVYSATILADGVPSRFSGSGSGTQYSLKINSLQSEDFGTYYCQHFWGTPYTFGGGTKLEIKR
As for B1, the binding entry in assay [1] and in assay [2] was “binds” in each case.
